Results are given in words; binding and its absence hold for the method and conditions named.
Experiments:
Test in all cases: fluorescence confocal microscopy, MEC1 transfectants
ΔCRD-ROR1 = molecular target: ΔCRD-ROR1
[1] = molecular target: ROR1 lacking the extracellular KNG domain
ΔPRD-ROR1 = molecular target: ΔPRD-ROR1

- binding (ΔCRD-ROR1): no binding
- binding [1]: no binding
- binding (ΔPRD-ROR1): no binding
B1: ARHGEF6 protein (Rho guanine nucleotide exchange factor 6) (other)
chain: MNPEEQIVTWLISLGVLESPKKTICDPEEFLKSSLKNGVVLCKLINRLMPGSVEKFCLDPQTEADCINNINDFLKGCATLQVEIFDPDDLYSGVNFSKVLSTLLAVNKATEDQLSERPCGRSSSLSAANTSQTNPQGAVSSTVSGLQRQSKTVEMTENGSHQLIVKARFNFKQTNEDELSVCKGDIIYVTRVEEGGWWEGTLNGRTGWFPSNYVREIKSSERPLSPKAVKGFETAPLTKNYYTVVLQNILDTEKEYAKELQSLLVTYLRPLQSNNNLSTVEVTSLLGNFEEVCTFQQTLCQALEECSKFPENQHKVGGCLLSLMPHFKSMYLAYCANHPSAVNVLTQHSDELEQFMENQGASSPGILILTTNLSKPFMRLEKYVTLLQELERHMEDTHPDHQDILKAIVAFKTLMGQCQDLRKRKQLELQILSEPIQAWEGEDIKNLGNVIFMSQVMVQYGACEEKEERYLMLFSNVLIMLSASPRMSGFIYQGKIPIAGTVVTRLDEIEGNDCTFEITGNTVERIVVHCNNNQDFQEWLEQLNRLIRGPASCSSLSKTSSSSCSAHSSFSSTGQPRGPLEPPQIIKPWSLSCLRPAPPLRPSAALGYKERMSYILKESSKSPKTMKKFLHKRKTERKPSEEEYVIRKSTAALEEDAQILKVIEAYCTSANFQQGHGSSTRKDSIPQVLLPEEEKLIIEETRSNGQTIMEEKSLVDTVYALKDEVRELKQENKRMKQCLEEELKSRRDLEKLVRRLLKQTDECIRGESSSKTSILP
notes: Endogenous protein of CLL and MEC1 cells
